Earlier results in patent US6815187B1, “Stimulation of angiogenesis via syndecan-4 cytoplasmic domain signaling pathway” (Beth Israel Deaconess Medical Center, priority 1998, dated 2004).
At least one structure is not confirmed: it was looked up by name or label, or the drawing left a doubt.

Tested on: PKC
Conditions: commercially available PKC inhibitors; cited from earlier work

## COc1ccc2c(c[n+](C)c3c4cc5c(cc4ccc23)OCO5)c1OC [Chelerythrine chloride]
  IC50: 660 nM
